Measured values taken from patent US4388304A (Richter Gedeon Vegyeszeti Gyar RT, priority 1980, dated 1983).

Test: general procedure: solution-phase peptide synthesis; pentafluorophenyl active esters (OPfp); dicyclohexyl carbodiimide-pentafluorophe
Settings: late stage modification step

| Substance | step yield [%] |
| --- | --- |
| (L-α-aminooxypropionic acid^1, isoleucine methyl ester^8)-angiotensin-II | 89 |
| (hydroxyacetic acid^1, threonine methyl ester^8)-angiotensin-II | 92 |
| (hydroxyacetic acid^1, threonine/Me/methyl ester^8)-angiotensin-II | 91 |
| PEPTIDE1{[HOAA].R.V.Y.I.H.P.I.[OMe]}$$$$V2.0 | 82 |
| PEPTIDE1{[Sar].R.V.Y.I.H.P.A.[OMe]}$$$$V2.0 | 75 |
| PEPTIDE1{[Sar].R.V.Y.I.H.P.I.[OMe]}$$$$V2.0 | 98 |
| PEPTIDE1{[Sar].R.V.Y.I.H.P.[Thr(Me)].[OMe]}$$$$V2.0 | 83 |

HELM strings list residues between dots; [ac] is acetyl, [am] amide, other brackets name non-standard units.
